Source: PubChem BioAssay AID1478 (National Center for Advancing Translational Sciences (NCATS), 2009)
Screen size: about 200,000 compounds; about 860 (0.43%) were called active. Only results without a clear call are listed here; the source files them as inconclusive. Calls come from the whole dose curve; as a rule, active = well fitted inhibition curve with a large enough effect; inconclusive = small, poorly fitted or top-dose-only effect; inactive = flat fitted curve, though single readings scatter.

The chains behind the UniProt entries cited, without tags or fusion partners. Residues count along the entry.
UniProt P25779, 123-467 limits assumed: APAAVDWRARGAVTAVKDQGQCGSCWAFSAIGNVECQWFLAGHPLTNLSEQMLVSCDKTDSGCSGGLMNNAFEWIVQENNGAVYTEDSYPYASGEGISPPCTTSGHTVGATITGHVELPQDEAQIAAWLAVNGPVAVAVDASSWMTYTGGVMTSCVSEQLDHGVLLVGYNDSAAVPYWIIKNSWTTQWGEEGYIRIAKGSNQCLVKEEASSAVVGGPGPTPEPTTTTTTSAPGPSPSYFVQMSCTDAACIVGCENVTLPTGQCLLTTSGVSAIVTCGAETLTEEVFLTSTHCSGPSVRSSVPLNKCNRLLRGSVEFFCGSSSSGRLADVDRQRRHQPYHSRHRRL

Target: Cruzipain (Trypanosoma cruzi) (UniProt P25779)
Test: qHTS Assay for Promiscuous and Specific Inhibitors of Cruzain (with detergent); note: nearly all actives have a fitted effect of over 40% in size
Details: purified cruzain, Z-FR-AMC fluorescence, 0.01% Triton
Method: Cruzain (3.4.22.51) is a cysteine protease from the tropical parasite Trypanosoma cruzi. Dual qHTS experiment was performed against the NCGC compound collection in order to 1) identify novel inhibitors of the enzyme and 2) profile the compound collection for promiscuous inhibitors operating via colloidal aggregation (by performing detergent-free and detergent-containing comparison screens). Cruzain was assayed by the use of fluorogenic coumarin-based substrate Z-FR-AMC: proteolytic cleavage releases AMC, whose fluorescence is measured at 360 nm excitation and 450 nm emission. Purified cruzain was supplied by the labs of Prof. James McKerrow and Brian Shoichet, UC San Francisco.
This assay had 0.01% Triton X-100 concentration. See also releated assay "qHTS Assay for Promiscuous and Specific Inhibitors of Cruzain (without detergent)" with 0.00005% Triton X-100.
See following references for additional details: […]
Three uL of enzyme or buffer were dispensed to 1536-well Greiner black solid bottom plates. […] The plates were immediately transferred to and read 4 times every 30 seconds for 2 min on ViewLux High-throughput CCD imager (Perkin-Elmer) using 360 nm excitation and 450 nm emission fluorescence protocol. The fluorescence intensity difference between the third and the first time points (time lapse of 60 seconds) was used to compute reaction progress.
Potency is the fitted concentration of half-maximal effect.

| SMILES | Potency |
| --- | --- |
| C/C1=C2N=C(/C=C3N=C(/C(C)=C4\[N-][C@@](C)([C@H]5N=C1[C@@](C)(CCC(=O)NC[C@H](C)OP(=O)([O-])O[C@@H]1[C@H](O)[C@H](n6cnc7cc(C)c(C)cc76)O[C@@H]1CO)[C@@H]5CC(N)=O)[C@](C)(CC(N)=O)[C@H]4CCC(N)=O)[C@@](C)(CC(N)=O)[C@@H]\3CCC(N)=O)C(C)(C)[C@@H]/2CCC(N)=O.[C-]#N.[Co+3] | inconclusive: 12.6 µM |
